Measured values reported in patent US7041642B1, “Fluorescent bombesin-like peptides” (PerkinElmer LAS, Inc., priority 1995, dated 2006).
Where “and” joins values, the source holds several entries; their conditions need not be identical. Equal entries are not always repeated. For some assays here: Not every detail of the peptide structures is certain; ends, links or a residue may be inferred. For some assays here: For at least one compound, name, drawing or mass did not settle the structure. Square brackets hold non-standard residues; d marks the D form. Peptide text beside a SMILES is read from it. Nle = CCCC[C@H](N)C(=O)O; βAla = NCCC(=O)O

By UniProt entry, the sequences of proteins in these tests, tags left out. Where a name states a change or a piece, a line headed by the entry shows the natural chain unless it says otherwise.
UniProt P28336: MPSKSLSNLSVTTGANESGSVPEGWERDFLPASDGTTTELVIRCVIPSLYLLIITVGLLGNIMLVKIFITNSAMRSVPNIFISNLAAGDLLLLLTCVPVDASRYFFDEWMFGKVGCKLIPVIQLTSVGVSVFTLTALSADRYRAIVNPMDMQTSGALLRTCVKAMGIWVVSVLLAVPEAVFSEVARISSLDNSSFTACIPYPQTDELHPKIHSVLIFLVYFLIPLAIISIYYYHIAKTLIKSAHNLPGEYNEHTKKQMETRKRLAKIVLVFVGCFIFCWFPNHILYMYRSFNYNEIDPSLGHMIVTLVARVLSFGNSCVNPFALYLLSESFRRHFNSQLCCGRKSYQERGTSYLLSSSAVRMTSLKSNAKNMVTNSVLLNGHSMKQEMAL
UniProt P30550: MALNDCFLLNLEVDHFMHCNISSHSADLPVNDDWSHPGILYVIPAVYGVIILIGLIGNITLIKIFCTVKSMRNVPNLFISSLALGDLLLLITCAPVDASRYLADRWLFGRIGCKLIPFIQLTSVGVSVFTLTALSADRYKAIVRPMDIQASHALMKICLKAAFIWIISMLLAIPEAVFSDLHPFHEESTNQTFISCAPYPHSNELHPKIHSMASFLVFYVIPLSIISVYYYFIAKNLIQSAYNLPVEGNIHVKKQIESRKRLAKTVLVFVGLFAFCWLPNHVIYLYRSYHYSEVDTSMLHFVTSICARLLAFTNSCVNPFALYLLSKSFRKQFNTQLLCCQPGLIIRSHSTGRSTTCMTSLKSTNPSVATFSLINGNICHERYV

Key:
BB1 (NMB receptor) = biological target: T1, BB1 (NMB receptor) (Homo sapiens, UniProt P28336); assay: Radioligand displacement binding, recombinant cells expressing BB1 (NMB receptor)
T1 construct: expressed in transfected cells
Description: (§1) All experimental results were obtained by displacing radiolabeled bombesin from the designated receptor, except for the results obtained for GRP which used radiolabeled GRP. Other receptors used in binding assays include the NMB receptor, the bombesin-receptor subtype 2 (BB2) and the bombesin receptor subtype 3 (BB3). As mentioned above, the biological activities of fluoresceinyl-NMC as well as fluoresceinyl-GRP compounds were determined in non-selective assay by binding to BB1, BB2 and BB3 expressed by rat brain neurons whereas the biological activities of fluoresceinyl-NMB and [Dphe^6, Ala^11, Phe^13, Nle^14]Bbn(6–14) compounds were determined by using recombinant cells expressing the BB1 (NMB receptor) or BB2 and BB3 receptors respectively.
Determination of IC50 for labeled peptides. […] In order to fully dissolve the peptide, the sample was reconstituted in 20 uL DMSO, vortexing well to ensure that all powder was completely dissolved, and then adding 0.48 mL of double distilled water. The stock solution was aliquoted to avoid repeated freezing and thawing of peptide. Unused aliquots were stored at −20° C. (protected from light) for maximum 24 hr. […]
(§2) Data for native and labeled peptides were analyzed by non-linear curve fitting. […]

BB1, BB2, BB3 = assay: Non-selective radioligand displacement binding, rat cerebral cortex / brain neurons; conditions: displacement of radiolabeled bombesin
Description: Referring now to FIG. 4, a fluoresceinyl-NMC peptide with the amino aid sequence […]NH2 (SEQ ID NO:4) was tested to determine its affinity for NMC receptor sites. The fluoresceinyl-NMC peptide compound absorbs light maximally at 494 nm and features an emission spectrum centered around 518 nm. […] The IC50 is related to the binding constant Ki by the formula IC50=Ki (1+FL/Kd), where FL is the concentration of the free labeled ligand and Kd is the dissociation constant for the labeled ligand.
as §1
Determination of IC50 for labeled peptides. […]
as §2

BB2 = biological target: T2, BB2 (Homo sapiens, UniProt P30550); assay: Radioligand displacement binding, recombinant cells expressing BB2
T2 construct: expressed in transfected cells

BB3 = biological target: T3, BB3 (Homo sapiens, UniProt P32247); assay: Radioligand displacement binding, recombinant cells expressing BB3
T3 construct: expressed in transfected cells
T3 sequence (P32247 1-399): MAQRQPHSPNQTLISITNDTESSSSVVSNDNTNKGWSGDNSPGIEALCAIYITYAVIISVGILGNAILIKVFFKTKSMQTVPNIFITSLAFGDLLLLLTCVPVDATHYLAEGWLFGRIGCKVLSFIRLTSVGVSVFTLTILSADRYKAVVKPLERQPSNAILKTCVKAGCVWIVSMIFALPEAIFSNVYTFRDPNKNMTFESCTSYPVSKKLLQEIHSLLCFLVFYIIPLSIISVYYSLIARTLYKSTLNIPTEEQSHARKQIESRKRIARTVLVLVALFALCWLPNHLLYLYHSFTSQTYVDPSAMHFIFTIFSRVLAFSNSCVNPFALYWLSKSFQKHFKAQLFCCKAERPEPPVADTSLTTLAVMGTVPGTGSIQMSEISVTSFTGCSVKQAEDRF

Q: Which Ki (BB1 (NMB receptor)) does the source give for CSCC[C@H](NC(=O)[C@H](Cc1ccccc1)NC(=O)[C@H](Cc1c[nH]cn1)NC(=O)CNC(=O)[C@@H](NC(=O)[C@H](C)NC(=O)[C@H](Cc1c[nH]c2ccccc12)NC(=O)[C@H](CC(C)C)NC(=O)[C@H](CC(N)=O)NC(=O)CNC(=O)c1ccc2c(c1)C(=O)OC21c2ccc(O)cc2Oc2cc(O)ccc21)[C@@H](C)O)C(N)=O [Fluo-NMB] here?
A: 7 nM

Q: How did the Ki (BB1, BB2, BB3; BB1, BB2, BB3 of rat brain neurons) turn out when CSCC[C@H](NC(=O)[C@H](CC(C)C)NC(=O)[C@H](Cc1cnc[nH]1)NC(=O)CNC(=O)[C@@H](NC(=O)[C@H](C)NC(=O)[C@H](Cc1c[nH]c2ccccc12)NC(=O)[C@H](CCC(N)=O)NC(=O)[C@H](CC(N)=O)NC(=O)CNC(=O)[C@H](CC(C)C)NC(=O)[C@H](CCCN=C(N)N)NC(=O)[C@H](CCC(N)=O)NC(=O)[C@@H]1CCC(=O)N1)C(C)C)C(N)=O [bombesin] was run?
A: 1.9 nM and 1.8 nM

Q: What about the IC50 (BB1, BB2, BB3; read-out: IC50 (concentration at which 50% of the binding is inhibited), receptors on rat cerebral cortex neurons) of the same compound?
A: 1.8 nM

Q: What does the source list for CCCC[C@H](NC(=O)[C@H](Cc1ccccc1)NC(=O)[C@H](Cc1c[nH]cn1)NC(=O)CCNC(=O)[C@@H](NC(=O)[C@H](C)NC(=O)[C@H](Cc1c[nH]c2ccccc12)NC(=O)CNC(=O)[C@H](N)Cc1ccccc1)C(C)C)C(N)=O [Dphe-Gly-Trp-Ala-Val-betaAla-His-Phe-Nle] (H-[dF]GWAV[βAla]HF[Nle]-NH2; N-terminus assumed)?
A: Ki (BB2): 0.17 nM; Ki (BB3): 23 nM
